Publication PMC11686378
Construct, isoform or probe ends are uncertain for at least one entry. At least one verdict rests on a figure or table, not on a statement of the authors.

Key:
[1] = tested on: RPAΔWH (Rpa1/Rpa2 1-179/Rpa3) (Pyrococcus abyssi); experiment: BLI; details: RPAΔWH loaded on immobilized ssDNA as filament bait for PriSL or PolD; BLI: 20 mM Na-HEPES pH 8, 150 mM NaCl, 0.2 mg/ml BSA; recombinant protein; label: 3'-TEG-biotin; single-stranded DNA
[2] = tested on: RPA (Rpa1/Rpa2/Rpa3) (Pyrococcus abyssi); experiment: BLI; details: RPA loaded on immobilized ssDNA as filament bait for PriSL or PolD; BLI: 20 mM Na-HEPES pH 8, 150 mM NaCl, 0.2 mg/ml BSA; recombinant protein; label: 3'-TEG-biotin; single-stranded DNA

Sequence: CACGCCCTACCTCCATGATCCACTGACCTCCCAGACGCTGCAAGACTTCC [3'-TEG-biotin ssDNA BLI bait]
- binding result [1]: binds
- binding result [2]: binds
